Data as given in the supplement of paper PMC12578635.
± gives the standard deviation of the averaged measurements. The list shows a part of the results. Many values rest on one well or one pass, so single values are uncertain.

What follows are molecules tested on RAW 264.7 macrophages infected with S. aureus JE2-lux (assay: host macrophage viability (CellTiter-Fluor) relative to DMSO vehicle; higher = more viable host cells). Conditions: 10 µM; treatment time 4 h; gentamicin 50 µg/ml.

| SMILES | host macrophage viability [%] |
| --- | --- |
| COc1cccc(C(c2sc3nc(C)nn3c2O)N2CCOCC2)c1 (stereo not given) | 110 ± 7.9 |
| COc1ccc(-c2c(C#N)c(SCC(N)=O)nc(C)c2C(=O)Nc2ccccc2)cc1OC | 120 |
| CCOC(=O)C1=C(c2ccccc2)OC(N)=C(C#N)C1c1ccccc1 (stereo not given) | 109 |
| COc1ccccc1C(=O)Nc1ccc(Nc2cc(N(C)C)nc(C)n2)cc1 | 104 |
| CCc1c(C)nc(SCC(=O)N2CCCCCC2)[nH]c1=O | 102 |
| COc1ccc(CNC(=O)C2CCCN(c3nccc4c(C)nn(C)c34)C2)c(OC)c1 (stereo not given) | 112 |
| CCOC(=O)c1ccc(NC(=O)c2ccc(SCCN3CCOCC3)nc2)cc1 | 83.7 |
| c1ccc2c(c1)c(NCc1ccncc1)nn1cnnc21 | 107 |
| Cc1cc2c(c(=O)[nH]1)C(c1ccccc1)C(C#N)=C(N)O2 (stereo not given) | 115 |
| Cc1ccc(-c2noc(-c3cnn4c(C)c(Cc5ccccc5C)c(C)nc34)n2)cc1 | 148 |
| CCOc1ccc(-c2c(C)nn3c(C)c(C(=O)NCc4cccnc4)cnc23)cc1OCC | 112 |
| CCOc1ccc(-c2noc(CCn3c(=O)[nH]c4ccccc4c3=O)n2)cc1OC | 95.4 |
| O=C(c1ccc(Cl)cc1)C1CCN(C(=O)Nc2ccc(F)cc2F)CC1 | 113 |
| O=C(CCOc1ccccc1)Nc1nnc(-c2cc(Cl)ccc2Cl)o1 | 111 |
| Cc1ccc(NC(=O)CC2SC3=NCCN3C2=O)cc1 (stereo not given) | 105 |
| COc1ccccc1N1CCN(c2cc(C)nc3nc(Cc4cccc(F)c4)nn23)CC1 | 122 |
| Cc1ccc2nc(NCc3ccccc3)c(/C=N/c3cccc(Cl)c3)c(=O)n2c1 | 123 |
| Cc1c(C(=O)O)sc2ncnc(NCCc3ccsc3)c12 | 125 |
| CCc1cc(-c2csc(S(=O)(=O)N(Cc3ccccc3)C(C)C)c2)on1 | 85.5 |
| COC(=O)c1ccc(CSC(=S)NC2CCS(=O)(=O)C2)cc1 (stereo not given) | 110 |
| O=C(Nc1cccc(Cl)c1)C1CCN(C(=O)NC2CCCCC2)CC1 | 118 |
| COc1cc(C)c(CNC(=O)c2c(-c3ccncc3)noc2C)cc1C(C)C | 112 |
| O=C(Oc1ccc2ccc(=O)oc2c1)c1ccc(Cl)cc1 | 149 ± 4.2 |
| COc1ccc(OC)c2[nH]c(=O)c(CCNC(=O)/C=C\c3ccccc3)cc12 | 125 |
| C=CCn1c(SCC(=O)N2CCN(CCO)CC2)nc2sc3c(c2c1=O)CCC3 | 118 ± 2.7 |
| Cc1cccn2c(=O)c(C=O)c(N3CCCC3)nc12 | 126 |
| O=c1[nH]c2ccc(S(=O)(=O)N3CCc4nc(N5CCCCC5)ncc4C3)cc2o1 | 114 |

| SMILES | host macrophage viability [%] |
| --- | --- |
| O=C(Cn1cc(C(=O)c2ccccc2)c(=O)c2cc3c(cc21)OCCO3)Nc1ccc2c(c1)OCO2 | 88.9 |
| COc1ccc(Cl)c2sc(N(Cc3cccnc3)C(=O)c3c(F)cccc3F)nc12 | 104 |
| O=C(O)c1ccccc1SC1CC(=O)N(c2ccc([N+](=O)[O-])cc2)C1=O (stereo not given) | 127 |
| N=c1oc2c3c4c(cc2cc1C(=O)Nc1cccc(Cl)c1Cl)CCCN4CCC3 | 141 |
| NC(=O)c1nc(Nc2ccccc2)sc1NC(=O)C1CCCCC1 | 91.7 |
| O=C(CSc1nc(-c2ccc3c(c2)OCO3)nc2cc(=O)[nH]n12)NCCCc1ccccc1 | 126 |
| COc1ccc(/C=N/Nc2ncnc3[nH]cnc23)c(OC)c1 | 103 |
| O=C(O)c1cc(Nc2nc(-c3ccccc3)c3cc(Br)ccc3n2)ccc1O | 113 |
| Cc1oc(-c2ccno2)cc1S(=O)(=O)NCC1CCCO1 (stereo not given) | 126 |
| O=C(CSc1nncc(=O)[nH]1)Nc1cccc(Cl)c1Cl | 110 |
| CCCn1cnc2cc(-c3noc(CNC(=O)Cc4ccc(Cl)cc4)n3)ccc21 | 110 |
| CCc1ccc(N2C(=O)CC(Sc3ncccc3C(=O)O)C2=O)cc1 (stereo not given) | 125 |
| Cc1occc1-c1nnc2sc(-c3ccc(-c4cccc([N+](=O)[O-])c4)o3)nn12 | 122 |
| Cc1ccc(CNC(=O)N2CCC(n3cnc4cccnc43)CC2)cc1 | 103 |
| COc1ccccc1NC(=O)N(CC(=O)Nc1sc(C)c(C)c1C(N)=O)C1CCCC1 | 115 |
| COc1ccc(C(=O)N2CN(CCCn3ccnc3)Cc3c2sc(C)c3C)cc1 | 124 |
| CCOC(=O)C1CCN(c2nnc(N3CCCCC3)c3ccccc23)CC1 | 128 |
| O=C(CSc1ncccc1C(=O)O)Nc1nc2c(s1)CCCC2 | 112 |
| O=c1[nH]ncc(N/N=C\c2ccc(O)cc2)c1Cl | 123 |
| Cc1nc2ccn(Cc3ccccc3)c(=O)c2cc1C(=O)NC1CCCC1 | 125 |
| O=C(Cn1ccn(-c2ccc(Br)cc2)c(=O)c1=O)Nc1ccccc1Cl | 123 |
| COC(=O)c1ccc(C2NC(=O)NC(O)(C(F)(F)F)C2C(=O)c2ccc(F)cc2)cc1 (stereo not given) | 113 |
| O=C(Nc1ccccc1-c1ccccc1)C1CCN(c2cnccn2)CC1 | 104 |
| O=C1Nc2c(Br)cc(Br)cc2/C1=N\NC(=O)c1ccco1 | 86.6 |
| NC(=O)c1ccc(NC(=O)CSc2nc3ccccc3o2)cc1 | 103 |
| Cc1ccccc1NC(=O)Cn1cc(S(=O)(=O)c2ccc(F)cc2)c(=O)c2cc3c(cc21)OCO3 | 102 |
| COc1ccc(Nc2nnc(Cc3ccc(F)cc3)c(=O)[nH]2)cc1OC | 113 |

In a second layout: 4 of the compounds above.
COc1ccccc1N1CCN(c2cc(C)nc3nc(Cc4cccc(F)c4)nn23)CC1
  host macrophage viability [%]: 122
Cc1c(C(=O)O)sc2ncnc(NCCc3ccsc3)c12
  host macrophage viability [%]: 125
COC(=O)c1ccc(CSC(=S)NC2CCS(=O)(=O)C2)cc1 (stereo not given)
  host macrophage viability [%]: 110
N=c1oc2c3c4c(cc2cc1C(=O)Nc1cccc(Cl)c1Cl)CCCN4CCC3
  host macrophage viability [%]: 141

Further entries follow:

| SMILES | host macrophage viability [%] |
| --- | --- |
| Cc1cccc(NC(=O)CN2CCC3(CC2)NC(=O)c2ccccc2O3)n1 | 126 |
| O=C(CN1CCc2nc(N3CCCC3)[nH]c(=O)c2C1)Nc1cccc(F)c1 | 146 |
| COc1ccc(CC(=O)NCCc2cn3ccc(C)cc3n2)cc1 | 126 |
| Cn1c(Sc2ccc3ccccc3n2)nc2c1c(=O)[nH]c(=O)n2C | 132 |
| CC1CCN(C(=O)CSc2ccc3nnc(-c4cccc(F)c4)n3n2)CC1 | 101 ± 11 |
| C=CCc1cccc2cc(C(N)=O)/c(=N\c3ccc(OC)cc3)oc12 | 105 |
| O=C(CSc1nnc2c(n1)[nH]c1ccc(Br)cc12)NCc1ccccc1 | 121 |
| Cc1nnc(SCC(=O)NCc2ccc3c(c2)OCO3)s1 | 120 |
| Cc1ccc(NC(=S)N2CCC(NC(=O)c3cccc(F)c3)CC2)cc1C | 114 |
| CCOC(=O)c1cc(C)nc2c1c(=O)n(CC(=O)Nc1c(C)cccc1CC)c(=O)n2C | 118 |
| CN1CCc2c(sc(NC(=O)c3cc4cc([NH+]([O-])O)ccc4s3)c2C(N)=O)C1 (stereo not given) | 103 |
| CCOc1ccnc2c1c(=O)n(Cc1cccnc1)c(=O)n2C | 93.3 |
| CN(C)CCn1c(=O)c2cnc(-c3ccncc3)nc2n(C)c1=O | 93.6 |
| CCOc1ccc(-c2cc(C(=O)Oc3cccc(Br)c3)no2)cc1 | 116 |
| CCN1C(=O)/C(=C2\SC(=S)NC2=O)c2cc(Br)ccc21 | 102 |
| N#Cc1ccc(CSc2cnc3ccccc3n2)cc1 | 130 |
| CCOc1ccc(C2CC(=O)Nc3c2cnn3-c2ccc3nncn3n2)cc1OC (stereo not given) | 115 |
| CC(C(=O)NCCn1nc(-c2cccs2)oc1=O)c1ccccc1 (stereo not given) | 134 |
| C=CCOc1ccccc1NC(=O)Cn1cnc2sc(C)cc2c1=O | 97.8 |
| O=C(Nn1cnc2c(cnn2-c2ccccc2)c1=O)c1cc2ccccc2o1 | 121 |
| CN1CCCc2cc(C(CNC(=O)c3ccc4c(c3)OCO4)N3CCCCC3)ccc21 (stereo not given) | 106 |
| CCCc1cc(=O)[nH]c2nnc(SCC(=O)Nc3nc4ccccc4s3)n12 | 114 |
| N#C/C(=C\c1c(Oc2ccccc2F)nc2ccccn2c1=O)C(N)=O | 123 |
| O=C(c1cc(-c2ccc3c(c2)OCCO3)on1)N(c1ccccc1)c1ccccc1 | 119 |
| O=C(CSc1nnc(-c2cccnc2)n1-n1cccc1)Nc1ccc(Cl)c(C(F)(F)F)c1 | 118 |
| Cc1cccc(-n2c(SCC(=O)NNC(=O)c3ccco3)nnc2-c2cccnc2)c1C | 118 |
| Cc1ccc(-n2nnc(C(=O)NCc3ccc(Cl)cc3)c2-n2cccc2)cc1 | 120 |

| SMILES | host macrophage viability [%] |
| --- | --- |
| CS(=O)(=O)Nc1nc2ccc(NC(=O)c3n[nH]c4c3CCCC4)cc2s1 | 91.9 |
| Cc1ccc(/C=C2\SC(=S)N(NC(=O)c3ccccc3Br)C2=O)o1 | 110 ± 25 |
| COc1ccc(-c2cccc(NS(=O)(=O)c3cccc([N+](=O)[O-])c3)c2)nn1 | 125 |
| COc1cccc(C(c2sc3ncnn3c2O)N2CC(C)CC(C)C2)c1 (stereo not given) | 115 |
| COCCCNC(=O)C1CCN(c2ncnc3onc(-c4ccc(C)cc4)c23)CC1 | 112 |
| O=C(Nc1ccc(-c2nc3cccnc3s2)cc1)c1ccc(Br)o1 | 140 ± 17 |
| O=C(O)/C=C/c1ccc2c(-c3ccccc3)onc2c1 | 89.1 |
| Cc1cc(Cl)cc2sc(NC(=O)CN3C(=O)CCC3=O)nc12 | 111 |
| O=C(CSc1nc(O)c2nc[nH]c2n1)N1CCCC1 | 107 |
| O=C(OC(C(=O)NC1CCCCC1)c1ccc2ncccc2c1)c1cccs1 (stereo not given) | 113 |
| COc1ccc(C(=O)Nc2sc(Cc3ccc4c(c3)OCO4)c(C)c2C#N)cc1 | 147 |
| Cc1cc2cc(CNC(=O)c3ccc([N+](=O)[O-])cc3)ccc2[nH]1 | 114 ± 16 |
| Cc1ccc(-c2ccc(/C=C3\SC(=S)N(CC(=O)O)C3=O)o2)cc1 | 129 |
| CCN(CC)c1ccc(C2C3=C(CCCC3=O)Nc3[nH]c(=O)[nH]c(=O)c32)cc1 (stereo not given) | 116 |
| Cc1ccc(S(=O)(=O)c2nnn3c2nc(NCc2ccc(Cl)cc2)c2ccccc23)c(C)c1 | 136 |
| COc1ccc(CN(Cc2cc3ccc(C)c(C)c3nc2Cl)C(=O)C2CC2)cc1 | 115 |
| O=C(COc1ccccc1)N1CCC[C@@H]1Cn1nc(-c2cccs2)ccc1=O | 90.4 |
| COC(=O)c1c(NC(=O)CCc2ccc(C)o2)sc2c1CCCC2 | 106 |
| Cc1cc(C)cc(NC(=O)CN2C(=O)C3(SCC(=O)N3c3ccc(F)cc3)c3ccccc32)c1 (stereo not given) | 125 |
| COc1cccc(C(=O)Nn2c(C3CCC3)nc3ccccc3c2=O)c1 | 122 |
| Cc1ccc(NS(=O)(=O)c2ccc(Cl)cc2)c(-c2nc3ccccc3[nH]c2=O)c1 | 118 |
| N#Cc1c(N)c(C(=O)c2ccc(Cl)cc2)n2ccccc12 | 113 |
| COc1ccccc1NCN1C(=O)C(=O)c2ccccc21 | 114 |
| COc1cccc(N(C(=O)c2cccs2)C(C(=O)NC2CCCCC2)c2ccc3ncccc3c2)c1 (stereo not given) | 120 |

Three entries already listed, sorted by count of non-hydrogen atoms, smallest number first:

| SMILES | host macrophage viability [%] |
| --- | --- |
| O=C1Nc2c(Br)cc(Br)cc2/C1=N\NC(=O)c1ccco1 | 86.6 |
| COc1ccc(Nc2nnc(Cc3ccc(F)cc3)c(=O)[nH]2)cc1OC | 113 |
| CCCn1cnc2cc(-c3noc(CNC(=O)Cc4ccc(Cl)cc4)n3)ccc21 | 110 |
